Part of at least one peptide drawing is inferred or uncertain, most often the ends. No end group written: not given here.
Columns and labels:
[1] = test system: Influenza A hemagglutinin (HA); assay: IM prime / patch-boost immunization, HA-specific ELISA
influenza virus = assay: Hemagglutination inhibition (HAI) assay of sera after patch boost; conditions: day 35, compared to IM control
[2] = test system: Influenza A hemagglutinin (HA); assay: Patch-prime / IM boost immunization, HA-specific ELISA
16HBE cells = assay: Paracellular flux of fluorescently-labeled antibody (palivizumab) through 16HBE monolayer; assay type: cell-based, human; conditions: diffusion measured at 30 min

“SILTGVSTLDQSLKQLSNFSQAVSTQSSR [Peptide 2]” was tested, and the “antibody response after patch boost” value ([1]; IM prime, HA patch boost, as early as 14 days post-boost) was “significant increases”, the “antibody titers compared to IM boost” value ([1]; by day 28) was “same level of antibody titers” and the HAI titers (influenza virus) was “comparable titers to IM control animals”. For the same sequence, the “antibody response after patch-prime” value ([2]; patch with HA, before IM boost) was “No detectable response”, the “mean HA-specific IgG antibody endpoint titer” value ([2]; patch-prime with HA, IM boost, day 38 post boost, p<0.05 vs vehicle (6,400)) was 33,000 and the “enhancement of antibody penetration (palivizumab, 150 kDa)” value (16HBE cells; 2.4 μM peptide) was 4.9±0.4 fold. For the same sequence, the “enhancement of antibody penetration (palivizumab, 150 kDa)” value (16HBE cells; 12 μM peptide) was 5.6±0.9 fold.

Source: patent US20220249364A1, “Designed Inhibitors of Tight Junction Formation” (University of Rochester, priority 2019, published 2022)
